Values quoted from earlier work in patent US9421209B2, “Kinase modulators” (Rhizen Pharmaceuticals SA, priority 2009, dated 2016).
For at least one compound, name, drawing or mass did not settle the structure.

Test system: Class I PI3 kinases
Conditions: read-out: IC50 against each of the various Class I PI3 kinases; cited from earlier work

In the case of `COC[C@H]1OC(=O)c2coc3c2[C@@]1(C)C1=C(C3=O)[C@@H]2CCC(=O)[C@@]2(C)C[C@H]1OC(C)=O` [wortmannin], the IC50 is given as 1 to 10 nM.
